Binding data for two molecules are collected here from article PMC4619786.

Assay [1] has as its target T1, podocin (mouse (endogenous in TM4)) (UniProt Q91X05).
T1 sequence: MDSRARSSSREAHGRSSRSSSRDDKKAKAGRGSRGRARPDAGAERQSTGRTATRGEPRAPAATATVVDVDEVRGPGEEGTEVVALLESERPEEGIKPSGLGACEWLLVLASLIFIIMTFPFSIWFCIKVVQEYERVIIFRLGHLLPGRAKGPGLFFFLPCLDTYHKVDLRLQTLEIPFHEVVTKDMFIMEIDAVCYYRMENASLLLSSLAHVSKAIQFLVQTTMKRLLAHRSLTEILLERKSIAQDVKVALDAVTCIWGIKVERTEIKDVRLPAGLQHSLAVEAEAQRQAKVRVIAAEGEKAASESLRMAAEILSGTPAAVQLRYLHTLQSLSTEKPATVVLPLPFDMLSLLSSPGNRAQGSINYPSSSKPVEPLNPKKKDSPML
The assay can be described thus: co-IP; whole-cell lysates of TM4 cells, precleared with protein G-plus-agarose beads at 4°C for 1 hour; immunoprecipitated with antipodocin or nephrin antibody and blotted with antinephrin or podocin antibody, respectively.

The target in assay [2] is T2, nephrin (mouse (endogenous in TM4)) (UniProt Q9QZS7).
T2 sequence: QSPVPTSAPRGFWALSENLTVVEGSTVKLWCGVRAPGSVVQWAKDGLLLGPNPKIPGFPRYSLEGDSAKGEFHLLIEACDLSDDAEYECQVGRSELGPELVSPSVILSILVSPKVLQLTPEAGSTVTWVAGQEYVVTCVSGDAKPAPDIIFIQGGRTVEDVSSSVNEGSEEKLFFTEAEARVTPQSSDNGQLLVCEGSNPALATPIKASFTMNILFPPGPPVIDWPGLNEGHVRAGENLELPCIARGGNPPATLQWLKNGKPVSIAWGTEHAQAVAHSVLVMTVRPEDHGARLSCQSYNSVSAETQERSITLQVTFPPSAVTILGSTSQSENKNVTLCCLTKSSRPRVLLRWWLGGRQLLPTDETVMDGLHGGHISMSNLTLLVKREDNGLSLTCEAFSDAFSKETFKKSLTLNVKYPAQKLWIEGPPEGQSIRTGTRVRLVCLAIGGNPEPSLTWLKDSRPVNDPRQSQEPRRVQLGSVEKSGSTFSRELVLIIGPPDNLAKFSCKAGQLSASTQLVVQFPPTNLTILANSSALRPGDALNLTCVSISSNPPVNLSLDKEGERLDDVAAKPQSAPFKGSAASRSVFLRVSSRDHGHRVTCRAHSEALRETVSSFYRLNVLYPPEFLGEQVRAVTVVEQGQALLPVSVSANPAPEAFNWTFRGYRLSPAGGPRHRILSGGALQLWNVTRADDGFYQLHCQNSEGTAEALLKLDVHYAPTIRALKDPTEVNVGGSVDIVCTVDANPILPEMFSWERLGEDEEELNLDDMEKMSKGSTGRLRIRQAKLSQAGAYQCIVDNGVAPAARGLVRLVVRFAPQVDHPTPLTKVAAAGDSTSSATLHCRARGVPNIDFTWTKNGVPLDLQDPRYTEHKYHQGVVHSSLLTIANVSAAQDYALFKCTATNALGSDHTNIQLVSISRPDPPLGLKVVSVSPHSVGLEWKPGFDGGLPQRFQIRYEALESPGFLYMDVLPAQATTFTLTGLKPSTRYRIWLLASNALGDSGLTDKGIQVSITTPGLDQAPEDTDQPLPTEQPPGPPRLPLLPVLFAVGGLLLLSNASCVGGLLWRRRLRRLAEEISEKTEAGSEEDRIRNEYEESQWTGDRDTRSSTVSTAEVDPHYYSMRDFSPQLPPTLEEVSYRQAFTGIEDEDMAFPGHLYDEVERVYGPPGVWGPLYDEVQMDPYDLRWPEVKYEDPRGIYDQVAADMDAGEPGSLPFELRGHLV
The description is as above.

Results are given in words; binding and its absence hold for the method and conditions named. In cells and extracts the contact can be indirect. Some results given as binding are weak or reduced against the parent protein; the word gives no strength.

B1: nephrin (protein, UniProt Q9QZS7 37-1256)
chain: T2 sequence
B1: the binding entry in assay [1] is given as “binds”.

B2: podocin (protein, UniProt Q91X05 1-385)
chain: T1 sequence
On to B2, for which, in assay [2], the binding entry is given as “binds”.
